Source: US12281162 (LANOVA MEDICINES DEVELOPMENT, dated 2025)
These are yes or no findings as the source states them, for the method shown. Some results given as binding are weak or reduced against the parent protein; the word gives no strength.

Chains of the proteins cited; added tags and fusions are not shown.
UniProt Q9NZD1: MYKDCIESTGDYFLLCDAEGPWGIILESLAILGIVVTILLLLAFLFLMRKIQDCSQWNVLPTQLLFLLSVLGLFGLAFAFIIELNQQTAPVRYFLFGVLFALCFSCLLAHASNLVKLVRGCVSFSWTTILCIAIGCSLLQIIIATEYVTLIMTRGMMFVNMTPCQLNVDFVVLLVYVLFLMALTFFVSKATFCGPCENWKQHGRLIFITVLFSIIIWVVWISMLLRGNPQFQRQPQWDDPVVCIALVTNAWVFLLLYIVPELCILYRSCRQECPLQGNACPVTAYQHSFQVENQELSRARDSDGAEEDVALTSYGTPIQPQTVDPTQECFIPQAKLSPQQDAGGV

Columns and labels:
[1] = molecular target: human G-protein-coupled receptor family C group 5 member D (GPRC5D) (human) (UniProt Q9NZD1); test: FACS, CHO-K1/human GPRC5D, hybridoma supernatant
[2] = molecular target: human G-protein-coupled receptor family C group 5 member D (GPRC5D) (human) (UniProt Q9NZD1); test: FACS, CHO-K1/GPRC5D

Binder	binding [1]	binding [2]
2D3C12 (antibody, V domains shown, murine antibody from hybridoma supernatant) VH: QVQLQQSGAELVRPGTSVKVSCKASGYAFINYLIEWIKQRPGQGLEWIGMINPGSGGTNYNEKFKDKATLTADKSSSTAYMQLSSLTSDDSAVYFCARNWDVWGQGTTLTVSS VL: DVVMTQSPLSLPVSLGDQASVSCRSSQSLVHSTGNTYLHWYLQKPGQSPKLLIYKVSNRFSGVPDRFSGSGSGTDFTLKISRVEAEDLGVYFCSQSTHVPWTFGGGTKLEIK	binds	
21C3C11B3 (antibody, V domains shown, murine antibody from hybridoma supernatant) VH: QVQLQQSGAELVRPGTSVKVSCKASGYAFINYLIEWIKQRPGQGLEWIGMINPGSGGTNYNEKFKDKATLTADKSSSTAYMQLSSLTSDDSAVYFCARNWDVWGQGTTLTVSS VL: DVVMTQSPLSLPVSLGDQASVSCRSSQSLVHSTGNTYLHWYLQKPGQSPKLLIYKVSNRFSGVPDRFSGSGSGTDFTLKISRVEAEDLGVYFCSQSTHVPWTFGGGTKLEIK	binds	
34D4A10 (antibody, V domains shown, murine antibody from hybridoma supernatant) VH: QVQLQQSGAELVRPGTSVKVSCKASGYAFISYLIEWIKQRPGQGLEWIGMINPGSGGTNYNEKFKDKATLTADKSSSTAYMQLSSLTSDDSAVYFCARNWDVWGQGTTLTVSS VL: DVVMTQSPLSLPVSLGDQASVSCRSSQSLVHSTGNTYLHWYLQKPGQSPKLLIYKVSNRFSGVPDRFSGSGSGTDFTLKISRVEAEDLGVYFCSQSTHVPWTFGGGTKLEIK	binds	
14C2A11C6 (antibody, V domains shown, murine antibody from hybridoma supernatant; also called 14C2A1106) VH: QVHLQQSGAELARPGASVKMSCKASGYTFTTYTMHWVKQRPGQGLEWIGYINPNSAYTNYNQKFKDKATLTADKSSSTAYMQLSSLTSEDSAVYYCARRVLLLRVLDFFDYWGQGTTLTVSS VL: DVQITQSPSYLAASPGETITINCRASKSINKYLTWYQEKPGKTNKLLIYSGSTLQSGIPSRFSGSGSGSDFTLTISSLEPEDFAMYYCQQHNEYPLTFGTGTKLELK	binds	
6G10D9 (antibody, V domains shown, murine antibody from hybridoma supernatant) VH: QVQLQQSGAELARPGASVKMSCKASGYTFTTYTMHWVKQRPGQGLEWLGYINPSSGYTNYNQKFKDKATLTAGKSSSTAYMQLSSLTSEDSAVYYCASLRSRGYFDYWGQGTTLTVSS VL: DIVMTQSQTFMSTSVGDRVRITCKASQNVGTAVVWYQQKTGQSPRLLIYSASNRYTGVPDRFTGSGSGTDFTLTISNMQSEDLADFFCQQYSSYPYTFGGGTKLEIK	binds	
29B2C10 (antibody, V domains shown, murine antibody from hybridoma supernatant) VH: EVQLQQSGPELVKPGASMKLSCKASGYSFTGYTMHWVKQSHGENLEWIGLINPYNGGTNYNQKFKGKATLTVDKSSSTAYMELLSLTSEDSAVYYCSRWGLRRAMDYWGQGTSVTVSS VL: DIVMTQSQKFMSTSVGDRVSVTCKASQNVGSNVAWYQQKPGQSPKALIYSASYRYSGVPDRFTGNGSGTDFTLTISNVQSEDLAEYFCQQYYNSPWTFGGGTKLEIK	binds	
29A7H11H4C12 (antibody, V domains shown, murine antibody from hybridoma supernatant) VH: EVQLQQSGPELVKPGASMKISCKASGYSFTGYTMHWVKQSHGENLEWIGLINPYNGGTNYNQKFKGKATLTVDKSSSTAYMELLSLTSEDSAVYYCSRWGLRRAMDYWGQGTSVTVSS VL: DIVMTQSQKFMSTSIGDRVSVTCKASQNVGSNVAWYQQKPGQSPKALIYSASYRYSGVPDRFTGNGSGTDFTLTISNVQSEDLAEYFCQQYYNSPWTFGGGTKLEIK	binds	
26E1D12 (antibody, V domains shown, murine antibody from hybridoma supernatant) VH: EVQLQQSGPELVKPGASMKISCKASGYSFTGYTMNWVKQSHGKNLEWIGLINPYNGGTNYNQKFKGKATLAVDKSSSTAYMDLLSLTSEDSAVYYCSRWGLRRAMDYWGQGTSVTVSS VL: DIVMTQSQKFMSTSVGDRVSVTCKASQNVGSNVAWYQQKPGQSPKALIYSASYRYSGVPDRFTGSGSGTDFTLTISNVQSEDLAEYFCQQYNNSPWTFGGGTKLEIK	binds	
14F3H2 (antibody, V domains shown, murine antibody from hybridoma supernatant) VH: EVQLQQSGPELVKPGASMKISCKASGYSFTGYTMNWVKQSHGKNLEWIGLINPYNGGIRYNQKFKGKATLTVDKSSSTAYMELLSLTSEDSAVYYCARWGLRRAMDYWGQGTSVTVSS VL: DIVMTQSQKFMSTSVGDRVSVTCKASQNVGTNVAWYQQKPGQSPKALIYSASYRYSGVPDRFTGSGSGTDFTLTISNVQSEDLAEYFCQQYNSSPWTFGGGTKLEIK	binds	
34D3H1 (antibody, V domains shown, murine antibody from hybridoma supernatant) VH: EVHLVESGGDLVKPGGSLKLSCAASGFTFSSYGMSWVRQTPDKRLEWVATISSGGSYTYYPDSVKGRFTISRDNAKNTLNLQMSSLKSEDTAMYYCARQGGDAMDYWGQGTSVTVSS VL: DIVLTQSPATLSVTPGDSVSLSCRASQSINNNLHWYQQKSHESPRLLIKYASQSISGIPSRFSGSGSGTDFTLSINSVETEDFGMYFCQQSNSRLTFGAGTKLELK	binds	
37-H1L2 (antibody, V domains shown, humanized 37B9C4, VH v1 x VL v2) VH: EVQLVESGGGLVQPGGSLRLSCAASGFTFSDYWMNWVRQAPGKGLEWVAEIRLKSNNYATHYAESVKGRFTISRDNAKNSLYLQMNSLRAEDTAVYYCARPLLWFRRYYAMDYWGQGTLVTVSS VL: DIQMTQSPSSLSASVGDRVTITCSASQGISNYLNWYQQKPGKTVKLLIYYTSSLHSGVPSRFSGSGSGTDYTLTISSLQPEDFATYYCQQYSKLPFTFGQGTKLEIK		binds
37-H2L3 (antibody, V domains shown, humanized 37B9C4, VH v2 x VL v3) VH: EVQLVESGGGLVQPGGSLRLSCAASGFTFSDYWMNWVRQSPGKGLEWVAEIRLKSNNYATHYAESVKGRFTISRDNAKSSLYLQMNSLRAEDTAVYYCTRPLLWFRRYYAMDYWGQGTLVTVSS VL: DIQMTQSPSSLSASVGDRITITCSASQGISNYLNWYQQKPGKTVKLLIYYTSSLHSGVPSRFSGSGSGTDYTLTISSLQPEDFATYYCQQYSKLPFTFGSGTKLEIK		binds
37-H2L1 (antibody, V domains shown, humanized 37B9C4, VH v2 x VL v1) VH: EVQLVESGGGLVQPGGSLRLSCAASGFTFSDYWMNWVRQSPGKGLEWVAEIRLKSNNYATHYAESVKGRFTISRDNAKSSLYLQMNSLRAEDTAVYYCTRPLLWFRRYYAMDYWGQGTLVTVSS VL: DIQMTQSPSSLSASVGDRVTITCSASQGISNYLNWYQQKPGKAPKLLIYYTSSLHSGVPSRFSGSGSGTDFTLTISSLQPEDFATYYCQQYSKLPFTFGQGTKLEIK		binds
37-H1L3 (antibody, V domains shown, humanized 37B9C4, VH v1 x VL v3) VH: EVQLVESGGGLVQPGGSLRLSCAASGFTFSDYWMNWVRQAPGKGLEWVAEIRLKSNNYATHYAESVKGRFTISRDNAKNSLYLQMNSLRAEDTAVYYCARPLLWFRRYYAMDYWGQGTLVTVSS VL: DIQMTQSPSSLSASVGDRITITCSASQGISNYLNWYQQKPGKTVKLLIYYTSSLHSGVPSRFSGSGSGTDYTLTISSLQPEDFATYYCQQYSKLPFTFGSGTKLEIK		binds

The remaining lines, values ahead:

binding [1]	binding [2]	Binder
binds		38A10E9A11 (antibody, V domains shown, murine antibody from hybridoma supernatant) VH: QVQLQQSGAELARPGASVKMSCKASGYTFTTYTMHWVKQRPGQGLEWIGYINPSSGYTNYNQKFKDKATLTAGKSSSTAYMQLSSLTSEDSAVYYCASLRSRGYFDYWGRGTTLTVSS VL: DIVMTQSQKFLSTSVGDRVSITCKASQNVGTAVAWYQQKPGQSPKLLIYSASNRYTGVPDRFTGSGSGTDFTLTISNMQSEDLAGYFCQQYSSYPYTFGGGTKLEIK
binds		40A5B2 (antibody, V domains shown, murine antibody from hybridoma supernatant) VH: EVQLQQSGPELVKPGASVKMSCKASGYTFTRNIMHWVKQKPGQGLEWIGYINPYNAGSKYNEKFKGKATLTSDISSSTAYMELSSLTSEDSAVYYCAREEVYYRYGAWFAYWGHGTLVTVSA VL: DIVLTQSPASLAVSLGQRATISCRASQSVSTSSYSYMHWYQQKPGQPPKLLIKYASNLESGVPARFSGSGSGTDFTLNIHPVEEEDTATYYCQHSWEIPRTFGGGTKLEIK
	binds	37-H3L1 (antibody, V domains shown, humanized 37B9C4, VH v3 x VL v1) VH: EVQLVESGGGLVQPGGSLRLSCAASGFTFSDYWMNWVRQSPGKGLEWVAEIRLKSNNYATHYAESVKGRFTISRDDSKSSVYLQMNSLRAEDTAVYYCTRPLLWFRRYYAMDYWGQGTLVTVSS VL: DIQMTQSPSSLSASVGDRVTITCSASQGISNYLNWYQQKPGKAPKLLIYYTSSLHSGVPSRFSGSGSGTDFTLTISSLQPEDFATYYCQQYSKLPFTFGQGTKLEIK
	binds	37-H3L2 (antibody, V domains shown, humanized 37B9C4, VH v3 x VL v2) VH: EVQLVESGGGLVQPGGSLRLSCAASGFTFSDYWMNWVRQSPGKGLEWVAEIRLKSNNYATHYAESVKGRFTISRDDSKSSVYLQMNSLRAEDTAVYYCTRPLLWFRRYYAMDYWGQGTLVTVSS VL: DIQMTQSPSSLSASVGDRVTITCSASQGISNYLNWYQQKPGKTVKLLIYYTSSLHSGVPSRFSGSGSGTDYTLTISSLQPEDFATYYCQQYSKLPFTFGQGTKLEIK
	binds	37-H3L3 (antibody, V domains shown, humanized 37B9C4, VH v3 x VL v3) VH: EVQLVESGGGLVQPGGSLRLSCAASGFTFSDYWMNWVRQSPGKGLEWVAEIRLKSNNYATHYAESVKGRFTISRDDSKSSVYLQMNSLRAEDTAVYYCTRPLLWFRRYYAMDYWGQGTLVTVSS VL: DIQMTQSPSSLSASVGDRITITCSASQGISNYLNWYQQKPGKTVKLLIYYTSSLHSGVPSRFSGSGSGTDYTLTISSLQPEDFATYYCQQYSKLPFTFGSGTKLEIK
binds		58F9G10 (antibody, V domains shown, murine antibody from hybridoma supernatant) VH: EVQLQQSGPELVKTGASVKISCKASGYSFTGYYIHWVKQSHGKSLEWIGYISCYNGATSFNQKFKGKATFTVDTSSSTAYMQFNSLTSEDSAVYYCARTELRGPWFAYWGQGTLVTVSA VL: QTVLTQSPAIMSASPGEKVTMTCSASSSVSYMNWYQQKSGTSPKRWIYDTSKLASGVPARFSGSGSGTSYSLTISSMEAEDAATYYCQQWSNNPLTFGAGTKLELK
binds		37B9C4 (antibody, V domains shown, murine antibody from hybridoma supernatant) VH: EVNLEESGGGLVQPGGSMKLSCVASGFTFSDYWMNWVRQSPEKGLEWVAEIRLKSNNYATHYAESVKGRFTISRDDSKSSVYLQMNNLRAEDTGIYYCTRPLLWFRRYYAMDYWGQGTSVTVSS VL: DIQMTQTTSSLSASLGDRITISCSASQGISNYLNWYQQKPDGTVKLLIYYTSSLHSGVPSRFSGSGSGTDYSLTISNLEPADIATYYCQQYSKLPFTFGSGTKLEIK
